According to patent US20120095193A1:
These are yes or no findings as the source states them, for the method shown. Some binding calls cover weakened binding; strength is not graded here.

By UniProt entry, the sequences of proteins in these tests, tags left out. Where a name states a change or a piece, a line headed by the entry shows the natural chain unless it says otherwise.
UniProt Q9UNA0: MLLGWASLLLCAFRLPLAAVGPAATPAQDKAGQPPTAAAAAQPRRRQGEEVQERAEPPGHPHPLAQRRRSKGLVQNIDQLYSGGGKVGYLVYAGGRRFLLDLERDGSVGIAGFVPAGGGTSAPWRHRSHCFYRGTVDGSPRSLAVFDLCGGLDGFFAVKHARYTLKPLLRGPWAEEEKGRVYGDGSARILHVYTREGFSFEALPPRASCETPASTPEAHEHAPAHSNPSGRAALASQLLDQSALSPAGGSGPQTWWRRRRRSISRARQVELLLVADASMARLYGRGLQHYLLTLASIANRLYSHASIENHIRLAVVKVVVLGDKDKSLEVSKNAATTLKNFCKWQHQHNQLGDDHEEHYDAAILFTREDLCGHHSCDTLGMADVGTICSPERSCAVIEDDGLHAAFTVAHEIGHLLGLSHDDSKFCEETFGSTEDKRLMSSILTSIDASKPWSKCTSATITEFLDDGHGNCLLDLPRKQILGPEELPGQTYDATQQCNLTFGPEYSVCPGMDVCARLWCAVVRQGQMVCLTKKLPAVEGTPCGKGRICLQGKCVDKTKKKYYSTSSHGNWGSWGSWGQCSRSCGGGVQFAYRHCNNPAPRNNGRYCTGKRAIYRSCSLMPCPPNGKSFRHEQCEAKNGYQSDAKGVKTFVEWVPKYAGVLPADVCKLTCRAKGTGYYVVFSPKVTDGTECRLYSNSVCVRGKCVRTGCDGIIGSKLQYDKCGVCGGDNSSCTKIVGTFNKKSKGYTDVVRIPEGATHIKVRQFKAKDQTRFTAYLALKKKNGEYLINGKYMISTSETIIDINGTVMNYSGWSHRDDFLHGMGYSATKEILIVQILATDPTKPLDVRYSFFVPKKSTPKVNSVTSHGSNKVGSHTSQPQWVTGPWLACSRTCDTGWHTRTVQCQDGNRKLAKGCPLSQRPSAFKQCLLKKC

B1: BPC1634 (antibody, human IgG1, kappa, V domains shown)
VH: EVQLVESGGGLVQPGGSLRLSCAASGFTFSDAWMDWVRQAPGKGLEWVAEIRNKANNHARHYAESVKGRFTISRDNAKNSLYLQMNSLRAEDTAVYYCARTYYYGSSYGYCDVWGQGTLVTVSS
VL: DIQMTQSPSSLSASVGDRVTITCRTSENIYSYLAWYQQKPGKAPKLLIYNAKTLAEGVPSRFSGSGSGTDFTLTISSLQPEDFATYYCQHHYGTPWTFGQGTKLEIKR
B2: BPC1637 (antibody, human IgG1, kappa, V domains shown)
VH: EVQLVESGGGLVQPGGSLRLSCAASGFTSSDAWMDWVRQAPGKGLEWVAEIRNKANNHARHYAESVKGRFTISRDNAKNSLYLQMNSLRAEDTAVYYCTRTYYYGSSYGYCDVWGQGTLVTVSS
VL: DIQMTQSPSSLSASVGDRVTITCRTSENIYSYLAWYQQKPGKAPKLLIYNAKTLAEGVPSRFSGSGSGTDFTLTISSLQPEDFATYYCQHHYGTPWTFGQGTKLEIKR
B3: BPC1640 (antibody, human IgG1, kappa, V domains shown)
VH: EVQLVESGGGLVQPGGSLRLSCAASGFTSSDAWMDWVRQAPGKGLEWVAEIRNKANNHARHYAESVKGRFTISRDDAKNSVYLQMNSLRAEDTAVYYCTRTYYYGSSYGYCDVWGQGTLVTVSS
VL: DIQMTQSPSSLSASVGDRVTITCRTSENIYSYLAWYQQKPGKAPKLLIYNAKTLAEGVPSRFSGSGSGTDFTLTISSLQPEDFATYYCQHHYGTPWTFGQGTKLEIKR
B4: BPC1642 (antibody, human IgG1, kappa, V domains shown)
VH: EVQLVESGGGLVQPGGSLRLSCAASGFTFSDAWMDWVRQAPGKGLEWVAEIRNKANNHARHYAESVKGRFTISRDNAKNSLYLQMNSLRAEDTAVYYCTRTYYYGSSYGYCDVWGQGTLVTVSS
VL: DIQMTQSPSSLSASVGDRVTITCRTSENIYSYLAWYQQKPGKAPKLLVYNAKTLAEGVPSRFSGSGSGTDFTLTISSLQPEDFATYYCQHHYGTPWTFGQGTKLEIKR
B5: BPC1636 (antibody, human IgG1, kappa, V domains shown)
VH: EVQLVESGGGLVQPGGSLRLSCAASGFTSSDAWMDWVRQAPGKGLEWVAEIRNKANNHARHYAESVKGRFTISRDNAKNSLYLQMNSLRAEDTAVYYCARTYYYGSSYGYCDVWGQGTLVTVSS
VL: DIQMTQSPSSLSASVGDRVTITCRTSENIYSYLAWYQQKPGKAPKLLIYNAKTLAEGVPSRFSGSGSGTDFTLTISSLQPEDFATYYCQHHYGTPWTFGQGTKLEIKR
B6: BPC1651 (antibody, human IgG1, kappa, V domains shown)
VH: EVQLVESGGGLVQPGGSLRLSCAASGFTSSDAWMDWVRQAPGKGLEWVAEIRNKANNHARHYAESVKGRFTISRDNAKNSLYLQMNSLRAEDTAVYYCTRTYYYGSSYGYCDVWGQGTLVTVSS
VL: DIQMTQSPSSLSASVGDRVTITCRTSENIYSYLAWYQQKPGKAPQLLVYNAKTLAEGVPSRFSGSGSGTDFTLTISSLQPEDFATYYCQHHYGTPWTFGQGTKLEIKR
B7: BPC1643 (antibody, human IgG1, kappa, V domains shown)
VH: EVQLVESGGGLVQPGGSLRLSCAASGFTSSDAWMDWVRQAPGKGLEWVAEIRNKANNHARHYAESVKGRFTISRDNAKNSLYLQMNSLRAEDTAVYYCARTYYYGSSYGYCDVWGQGTLVTVSS
VL: DIQMTQSPSSLSASVGDRVTITCRTSENIYSYLAWYQQKPGKAPKLLVYNAKTLAEGVPSRFSGSGSGTDFTLTISSLQPEDFATYYCQHHYGTPWTFGQGTKLEIKR
B8: BPC1645 (antibody, human IgG1, kappa, V domains shown)
VH: EVQLVESGGGLVQPGGSLRLSCAASGFTSSDAWMDWVRQAPGKGLEWVAEIRNKANNHARHYAESVKGRFTISRDDAKNSLYLQMNSLRAEDTAVYYCTRTYYYGSSYGYCDVWGQGTLVTVSS
VL: DIQMTQSPSSLSASVGDRVTITCRTSENIYSYLAWYQQKPGKAPKLLVYNAKTLAEGVPSRFSGSGSGTDFTLTISSLQPEDFATYYCQHHYGTPWTFGQGTKLEIKR
B9: BPC1650 (antibody, human IgG1, kappa, V domains shown)
VH: EVQLVESGGGLVQPGGSLRLSCAASGFTSSDAWMDWVRQAPGKGLEWVAEIRNKANNHARHYAESVKGRFTISRDNAKNSLYLQMNSLRAEDTAVYYCARTYYYGSSYGYCDVWGQGTLVTVSS
VL: DIQMTQSPSSLSASVGDRVTITCRTSENIYSYLAWYQQKPGKAPQLLVYNAKTLAEGVPSRFSGSGSGTDFTLTISSLQPEDFATYYCQHHYGTPWTFGQGTKLEIKR
B10: BPC1647 (antibody, human IgG1, kappa, V domains shown)
VH: EVQLVESGGGLVQPGGSLRLSCAASGFTSSDAWMDWVRQAPGKGLEWVAEIRNKANNHARHYAESVKGRFTISRDDAKNSVYLQMNSLRAEDTAVYYCTRTYYYGSSYGYCDVWGQGTLVTVSS
VL: DIQMTQSPSSLSASVGDRVTITCRTSENIYSYLAWYQQKPGKAPKLLVYNAKTLAEGVPSRFSGSGSGTDFTLTISSLQPEDFATYYCQHHYGTPWTFGQGTKLEIKR
B11: BPC1646 (antibody, human IgG1, kappa, V domains shown)
VH: EVQLVESGGGLVQPGGSLRLSCAASGFTSSDAWMDWVRQAPGKGLEWVAEIRNKANNHARHYAESVKGRFTISRDNAKNSVYLQMNSLRAEDTAVYYCTRTYYYGSSYGYCDVWGQGTLVTVSS
VL: DIQMTQSPSSLSASVGDRVTITCRTSENIYSYLAWYQQKPGKAPKLLVYNAKTLAEGVPSRFSGSGSGTDFTLTISSLQPEDFATYYCQHHYGTPWTFGQGTKLEIKR
B12: BPC1653 (antibody, human IgG1, kappa, V domains shown)
VH: EVQLVESGGGLVQPGGSLRLSCAASGFTSSDAWMDWVRQAPGKGLEWVAEIRNKANNHARHYAESVKGRFTISRDNAKNSVYLQMNSLRAEDTAVYYCTRTYYYGSSYGYCDVWGQGTLVTVSS
VL: DIQMTQSPSSLSASVGDRVTITCRTSENIYSYLAWYQQKPGKAPQLLVYNAKTLAEGVPSRFSGSGSGTDFTLTISSLQPEDFATYYCQHHYGTPWTFGQGTKLEIKR
B13: BPC1638 (antibody, human IgG1, kappa, V domains shown)
VH: EVQLVESGGGLVQPGGSLRLSCAASGFTSSDAWMDWVRQAPGKGLEWVAEIRNKANNHARHYAESVKGRFTISRDDAKNSLYLQMNSLRAEDTAVYYCTRTYYYGSSYGYCDVWGQGTLVTVSS
VL: DIQMTQSPSSLSASVGDRVTITCRTSENIYSYLAWYQQKPGKAPKLLIYNAKTLAEGVPSRFSGSGSGTDFTLTISSLQPEDFATYYCQHHYGTPWTFGQGTKLEIKR
B14: BPC1654 (antibody, human IgG1, kappa, V domains shown)
VH: EVQLVESGGGLVQPGGSLRLSCAASGFTSSDAWMDWVRQAPGKGLEWVAEIRNKANNHARHYAESVKGRFTISRDDAKNSVYLQMNSLRAEDTAVYYCTRTYYYGSSYGYCDVWGQGTLVTVSS
VL: DIQMTQSPSSLSASVGDRVTITCRTSENIYSYLAWYQQKPGKAPQLLVYNAKTLAEGVPSRFSGSGSGTDFTLTISSLQPEDFATYYCQHHYGTPWTFGQGTKLEIKR
B15: BPC1639 (antibody, human IgG1, kappa, V domains shown)
VH: EVQLVESGGGLVQPGGSLRLSCAASGFTSSDAWMDWVRQAPGKGLEWVAEIRNKANNHARHYAESVKGRFTISRDNAKNSVYLQMNSLRAEDTAVYYCTRTYYYGSSYGYCDVWGQGTLVTVSS
VL: DIQMTQSPSSLSASVGDRVTITCRTSENIYSYLAWYQQKPGKAPKLLIYNAKTLAEGVPSRFSGSGSGTDFTLTISSLQPEDFATYYCQHHYGTPWTFGQGTKLEIKR
B16: BPC1652 (antibody, human IgG1, kappa, V domains shown)
VH: EVQLVESGGGLVQPGGSLRLSCAASGFTSSDAWMDWVRQAPGKGLEWVAEIRNKANNHARHYAESVKGRFTISRDDAKNSLYLQMNSLRAEDTAVYYCTRTYYYGSSYGYCDVWGQGTLVTVSS
VL: DIQMTQSPSSLSASVGDRVTITCRTSENIYSYLAWYQQKPGKAPQLLVYNAKTLAEGVPSRFSGSGSGTDFTLTISSLQPEDFATYYCQHHYGTPWTFGQGTKLEIKR
B17: BPC1648 (antibody, human IgG1, kappa, V domains shown)
VH: EVQLVESGGGLVQPGGSLRLSCAASGFTFSDAWMDWVRQAPGKGLEWVAEIRNKANNHARHYAESVKGRFTISRDNAKNSLYLQMNSLRAEDTAVYYCARTYYYGSSYGYCDVWGQGTLVTVSS
VL: DIQMTQSPSSLSASVGDRVTITCRTSENIYSYLAWYQQKPGKAPQLLVYNAKTLAEGVPSRFSGSGSGTDFTLTISSLQPEDFATYYCQHHYGTPWTFGQGTKLEIKR
B18: BPC1644 (antibody, human IgG1, kappa, V domains shown)
VH: EVQLVESGGGLVQPGGSLRLSCAASGFTSSDAWMDWVRQAPGKGLEWVAEIRNKANNHARHYAESVKGRFTISRDNAKNSLYLQMNSLRAEDTAVYYCTRTYYYGSSYGYCDVWGQGTLVTVSS
VL: DIQMTQSPSSLSASVGDRVTITCRTSENIYSYLAWYQQKPGKAPKLLVYNAKTLAEGVPSRFSGSGSGTDFTLTISSLQPEDFATYYCQHHYGTPWTFGQGTKLEIKR
B19: BPC1635 (antibody, human IgG1, kappa, V domains shown)
VH: EVQLVESGGGLVQPGGSLRLSCAASGFTFSDAWMDWVRQAPGKGLEWVAEIRNKANNHARHYAESVKGRFTISRDNAKNSLYLQMNSLRAEDTAVYYCTRTYYYGSSYGYCDVWGQGTLVTVSS
VL: DIQMTQSPSSLSASVGDRVTITCRTSENIYSYLAWYQQKPGKAPKLLIYNAKTLAEGVPSRFSGSGSGTDFTLTISSLQPEDFATYYCQHHYGTPWTFGQGTKLEIKR
B20: BPC1649 (antibody, human IgG1, kappa, V domains shown)
VH: EVQLVESGGGLVQPGGSLRLSCAASGFTFSDAWMDWVRQAPGKGLEWVAEIRNKANNHARHYAESVKGRFTISRDNAKNSLYLQMNSLRAEDTAVYYCTRTYYYGSSYGYCDVWGQGTLVTVSS
VL: DIQMTQSPSSLSASVGDRVTITCRTSENIYSYLAWYQQKPGKAPQLLVYNAKTLAEGVPSRFSGSGSGTDFTLTISSLQPEDFATYYCQHHYGTPWTFGQGTKLEIKR
B21: BPC1622 (antibody, human IgG1, kappa, V domains shown)
VH: EVKLEESGGGLVQPGGSMKLSCAASGFTSSDAWMDWVRQSPEKGLEWVAEIRNKANNHARHYAESVKGRFTISRDDSKSSVYLQMNSLRAEDSGIYYCTRTYYYGSSYGYCDVWGTGTLVTVSS
VL: DIQMTQSPASLSASVGETVTITCRTSENIYSYLAWYQQKQGKSPQLLVYNAKTLAEGVPSRFSGSGSGTQFSLKINSLQPEDFGSYSCQHHYGTPWTFGGGTKLEIKR

Molecular target: human ADAMTS5 (human) (UniProt Q9UNA0)
Test: ELISA on coated recombinant human ADAMTS5 (0.2 ug/ml), antibody in culture supernatant, anti human kappa peroxidase, absorbance 490 nm

binding, binds:
B1, B2, B3, B4, B5, B6, B7, B8, B9, B10, B11, B12, B13, B14, B15, B16, B17, B18, B19, B20, B21
